PubChem BioAssay AID248 (DTP/NCI, 2004)
The list is a part of this screen's results and no random one: it gathers tests that were run many times, whatever their T/C, doses with no T/C, and many T/C values between a quarter and a half above the control. Further doses and runs are listed elsewhere. T/C gives the treated animals as a percentage of the vehicle group. Some entries give survivors of the animals treated and no T/C: the source files T/C as zero there, which appears to mark a toxic dose or a test without result, not a measured value. Some doses without a T/C left all or most animals alive at the check, yet need not have been tolerated: the source hardly ever lists a survival T/C far under the control, and the zero likely stands for such cases as well. Survivors were counted at the toxicity check, usually on the fifth day, unless a day is given; later deaths do not show. Schedules are NCI's codes, read here as Q, the interval in days (D) or hours (H), X, the number of doses. Some schedules carry Z or #; the key to these is not given. Some molecules as drawn cover several salts, stereoisomers or complexes of the source; a dose is that of the sample tested. For survival time, the PubChem record calls one and a half times the control and up active, and a quarter to a half above the control has no call in these data; cut-offs in other NCI protocols can differ. Some T/C values are followed by the survivors on the day toxicity was checked, most often the fifth; where none is given, no animal had died by that day.

Test system: L1210 leukemia ip in BDF1 mice, survival T/C
Assay: NCI In Vivo Anticancer Drug Screen. Data for tumor model L1210 Leukemia (intraperitoneal) in B6D2F1 (BDF1) mice
Conditions: T/C endpoint: mean survival time, higher T/C = longer survival
[1] = dose: 400.0 mg/kg/injection, schedule: Q01DX001 (ip), vehicle: saline
[2] = dose: 100.0 mg/kg/injection, schedule: Q01DX009 (ip), vehicle: saline with Tween-80
[3] = dose: 400.0 mg/kg/injection, schedule: Q04DX003 (ip), vehicle: acetone
[4] = dose: 2.0 mg/kg/injection, schedule: Q04DX003 (ip), vehicle: saline
[5] = dose: 400.0 mg/kg/injection, schedule: Q04DX003 (ip), vehicle: saline with Tween-80
[6] = dose: 100.0 mg/kg/injection, schedule: Q04DX003 (ip), vehicle: Klucel (hydroxypropylcellulose) (HPC)
[7] = dose: 200.0 mg/kg/injection, schedule: Q04DX003 (ip), vehicle: Klucel (hydroxypropylcellulose) (HPC)
[8] = dose: 400.0 mg/kg/injection, schedule: Q04DX003 (ip), vehicle: Klucel (hydroxypropylcellulose) (HPC)

C[N+](C)(C)CCOC(=O)c1ccc(CBr)cc1
survivor count (dose: 200.0 mg/kg/injection, schedule: Q01DX009 (ip), vehicle: saline): 5 of 6 | survivor count (dose: 200.0 mg/kg/injection, schedule: Q04DX002 (ip), vehicle: saline): 1 of 3 | survivor count (dose: 400.0 mg/kg/injection, schedule: Q01DX009 (ip), vehicle: saline): 0 of 6 | survivor count (dose: 400.0 mg/kg/injection, schedule: Q04DX002 (ip), vehicle: saline): 0 of 3

CSc1nc(N(C)C)c2[nH]c(C)nc2n1
survivor count [1]: 2 of 6

O=[N+]([O-])CC(C[N+](=O)[O-])C(F)(F)C(F)(F)C(F)(F)F
survivor count (dose: 200.0 mg/kg/injection, schedule: Q01DX001 (ip), vehicle: other): 0 of 4 | survivor count (dose: 400.0 mg/kg/injection, schedule: Q01DX001 (ip), vehicle: other): 0 of 4

CCCCCCC[CH2][Sn](=[O])[CH2]CCCCCCC
survivor count (dose: 12.5 mg/kg/injection, schedule: Q01DX009 (ip), vehicle: saline with Tween-80): 5 of 6 | survivor count (dose: 25.0 mg/kg/injection, schedule: Q01DX009 (ip), vehicle: saline with Tween-80): 6 of 6 | survivor count (dose: 50.0 mg/kg/injection, schedule: Q01DX009 (ip), vehicle: saline with Tween-80): 1 of 6 | survivor count [2]: 0 of 6 | survivor count (dose: 200.0 mg/kg/injection, schedule: Q04DX003 (ip), vehicle: acetone): 4 of 6 | survivor count [3]: 0 of 6

O=C1C(NCC(O)CO)=C(N2CC2)C(=O)C(NCC(O)CO)=C1N1CC1 (stereo not given)
T/C (dose: 0.25 mg/kg/injection, schedule: Q04DX003 (ip), vehicle: saline): 129 % of control | T/C (dose: 0.5 mg/kg/injection, schedule: Q04DX003 (ip), vehicle: saline): 129 % of control | T/C (dose: 1.0 mg/kg/injection, schedule: Q01DX009 (ip), vehicle: saline): 147 % of control | T/C (dose: 1.0 mg/kg/injection, schedule: Q04DX003 (ip), vehicle: saline): 138 % of control | T/C [4]: 143 % of control | survivor count (dose: 8.0 mg/kg/injection, schedule: Q01DX001 (ip), vehicle: saline): 6 of 6 | survivor count (dose: 16.0 mg/kg/injection, schedule: Q01DX001 (ip), vehicle: saline): 4 of 6

Cn1cnc([N+](=O)[O-])c1[Se]c1ncnc2c1ccn2C1OC(CO)C(O)C1O (stereo not given)
survivor count (dose: 100.0 mg/kg/injection, schedule: Q01DX005 (ip), vehicle: saline): 2 of 6 | survivor count (dose: 200.0 mg/kg/injection, schedule: Q01DX005 (ip), vehicle: saline): 0 of 6

ClC(Cl)=C1SCCCS1
survivor count (dose: 400.0 mg/kg/injection, schedule: Q01DX001 (ip), vehicle: saline with Tween-80): 0 of 3

C/C(=C\c1ccc(O)cc1)[N+](=O)[O-]
survivor count [3]: 0 of 6

CC(=O)Nc1ccc(S(=O)(=O)Nc2cc(C)c(C)cc2C)cc1
survivor count (dose: 400.0 mg/kg/injection, schedule: Q04DX002 (ip), vehicle: Klucel (hydroxypropylcellulose) (HPC)): 3 of 3

O=C(O)c1ccc(Nc2c3ccccc3nc3ccccc23)cc1
survivor count (dose: 200.0 mg/kg/injection, schedule: Q01DX009 (ip), vehicle: Klucel (hydroxypropylcellulose) (HPC)): 3 of 3

CN(C)/N=C\c1ccccc1Cl
survivor count [2]: 6 of 6 | survivor count (dose: 200.0 mg/kg/injection, schedule: Q01DX009 (ip), vehicle: saline with Tween-80): 1 of 6 | survivor count [5]: 1 of 6

CC(C)(C)CC(=O)OCCC[N+](C)(C)C
survivor count (dose: 100.0 mg/kg/injection, schedule: Q01DX009 (ip), vehicle: water): 2 of 6 | survivor count (dose: 200.0 mg/kg/injection, schedule: Q01DX009 (ip), vehicle: water): 1 of 6 | survivor count (dose: 400.0 mg/kg/injection, schedule: Q01DX009 (ip), vehicle: water): 0 of 6

CN(C)/N=C/c1ccc(N(C)C)cc1
survivor count (dose: 100.0 mg/kg/injection, schedule: Q01DX009 (ip), vehicle: Klucel (hydroxypropylcellulose) (HPC)): 2 of 6 | survivor count [6]: 3 of 6 | survivor count [7]: 0 of 6 | survivor count [8]: 0 of 6

CC(=O)[C@@]1(O)CC[C@H]2[C@@H]3CCC4=CC(=O)CC[C@]4(C)[C@@]3(F)[C@@H](O)C[C@@]21C
survivor count (dose: 50.0 mg/kg/injection, schedule: Q01DX Z (sc), vehicle: steroid suspending solution): 6 of 6

CSc1cc(=O)n2c3ccccc3c3ccnc1c32
survivor count (dose: 200.0 mg/kg/injection, schedule: Q01DX001 (ip), vehicle: saline): 1 of 6 | survivor count [1]: 0 of 6

NC(=S)NN=C1CCCCCCCCCCCCCC1
survivor count (dose: 50.0 mg/kg/injection, schedule: Q01DX001 (ip), vehicle: carboxymethylcellulose (CMC)): 4 of 4 | survivor count (dose: 100.0 mg/kg/injection, schedule: Q01DX001 (ip), vehicle: carboxymethylcellulose (CMC)): 4 of 4 | survivor count (dose: 200.0 mg/kg/injection, schedule: Q01DX001 (ip), vehicle: carboxymethylcellulose (CMC)): 4 of 4 | survivor count (dose: 400.0 mg/kg/injection, schedule: Q01DX001 (ip), vehicle: carboxymethylcellulose (CMC)): 4 of 4

CCC(COS(=O)(=O)c1ccc(C)cc1)[N+](=O)[O-] (stereo not given)
survivor count [6]: 3 of 6 | survivor count [7]: 0 of 6 | survivor count [8]: 6 of 6

O=C1C(c2c[nH]c3ccc(Br)cc23)=Nc2ccc([N+](=O)[O-])cc21
survivor count (dose: 100.0 mg/kg/injection, schedule: Q01DX001 (ip), vehicle: saline): 4 of 4

COc1cccc2c1C(=O)c1c(O)c3c(c(O)c1C2=O)C[C@@](O)(/C(C)=N\NC(=O)CO)C[C@@H]3OC1CC(N)C(O)C(C)O1 (stereo not given in full)
T/C [4]: 127 % of control | T/C (dose: 2.66 mg/kg/injection, schedule: Q04DX003 (ip), vehicle: saline): 135 % of control | T/C (dose: 4.0 mg/kg/injection, schedule: Q04DX003 (ip), vehicle: saline): 140 % of control | T/C (dose: 6.0 mg/kg/injection, schedule: Q04DX003 (ip), vehicle: saline): 148 % of control | T/C (dose: 7.0 mg/kg/injection, schedule: Q01DX009 (ip), vehicle: saline): 142 % of control | T/C (dose: 8.0 mg/kg/injection, schedule: Q04DX003 (ip), vehicle: saline): 128 % of control [5 of 6 alive] | T/C (dose: 9.0 mg/kg/injection, schedule: Q04DX003 (ip), vehicle: saline): 147 % of control | T/C (dose: 12.5 mg/kg/injection, schedule: Q04DX003 (ip), vehicle: saline): 131 % of control | survivor count (dose: 21.0 mg/kg/injection, schedule: Q01DX009 (ip), vehicle: saline): 5 of 6 | T/C (dose: 21.0 mg/kg/injection, schedule: Q04DX003 (ip), vehicle: saline): 139 % of control | T/C (dose: 25.0 mg/kg/injection, schedule: Q01DX009 (ip), vehicle: saline): 127 % of control | survivor count (dose: 32.0 mg/kg/injection, schedule: Q01DX009 (ip), vehicle: saline): 1 of 6 | T/C (dose: 32.0 mg/kg/injection, schedule: Q04DX003 (ip), vehicle: saline): 147 % of control | survivor count (dose: 48.0 mg/kg/injection, schedule: Q04DX003 (ip), vehicle: saline): 6 of 6 | T/C (dose: 50.0 mg/kg/injection, schedule: Q01DX009 (ip), vehicle: saline): 145 % of control

CCCCCCCCCCCCSCCCN
survivor count (dose: 100.0 mg/kg/injection, schedule: Q04DX003 (ip), vehicle: saline with Tween-80): 4 of 6 | survivor count (dose: 200.0 mg/kg/injection, schedule: Q04DX003 (ip), vehicle: saline with Tween-80): 0 of 6 | survivor count [5]: 3 of 6
